This passage reports binding results from paper PMC5823910.

Chains of the proteins cited; added tags and fusions are not shown. Lines headed by an entry give the natural chain unless they say otherwise; changes in a name come on top.
UniProt Q13315: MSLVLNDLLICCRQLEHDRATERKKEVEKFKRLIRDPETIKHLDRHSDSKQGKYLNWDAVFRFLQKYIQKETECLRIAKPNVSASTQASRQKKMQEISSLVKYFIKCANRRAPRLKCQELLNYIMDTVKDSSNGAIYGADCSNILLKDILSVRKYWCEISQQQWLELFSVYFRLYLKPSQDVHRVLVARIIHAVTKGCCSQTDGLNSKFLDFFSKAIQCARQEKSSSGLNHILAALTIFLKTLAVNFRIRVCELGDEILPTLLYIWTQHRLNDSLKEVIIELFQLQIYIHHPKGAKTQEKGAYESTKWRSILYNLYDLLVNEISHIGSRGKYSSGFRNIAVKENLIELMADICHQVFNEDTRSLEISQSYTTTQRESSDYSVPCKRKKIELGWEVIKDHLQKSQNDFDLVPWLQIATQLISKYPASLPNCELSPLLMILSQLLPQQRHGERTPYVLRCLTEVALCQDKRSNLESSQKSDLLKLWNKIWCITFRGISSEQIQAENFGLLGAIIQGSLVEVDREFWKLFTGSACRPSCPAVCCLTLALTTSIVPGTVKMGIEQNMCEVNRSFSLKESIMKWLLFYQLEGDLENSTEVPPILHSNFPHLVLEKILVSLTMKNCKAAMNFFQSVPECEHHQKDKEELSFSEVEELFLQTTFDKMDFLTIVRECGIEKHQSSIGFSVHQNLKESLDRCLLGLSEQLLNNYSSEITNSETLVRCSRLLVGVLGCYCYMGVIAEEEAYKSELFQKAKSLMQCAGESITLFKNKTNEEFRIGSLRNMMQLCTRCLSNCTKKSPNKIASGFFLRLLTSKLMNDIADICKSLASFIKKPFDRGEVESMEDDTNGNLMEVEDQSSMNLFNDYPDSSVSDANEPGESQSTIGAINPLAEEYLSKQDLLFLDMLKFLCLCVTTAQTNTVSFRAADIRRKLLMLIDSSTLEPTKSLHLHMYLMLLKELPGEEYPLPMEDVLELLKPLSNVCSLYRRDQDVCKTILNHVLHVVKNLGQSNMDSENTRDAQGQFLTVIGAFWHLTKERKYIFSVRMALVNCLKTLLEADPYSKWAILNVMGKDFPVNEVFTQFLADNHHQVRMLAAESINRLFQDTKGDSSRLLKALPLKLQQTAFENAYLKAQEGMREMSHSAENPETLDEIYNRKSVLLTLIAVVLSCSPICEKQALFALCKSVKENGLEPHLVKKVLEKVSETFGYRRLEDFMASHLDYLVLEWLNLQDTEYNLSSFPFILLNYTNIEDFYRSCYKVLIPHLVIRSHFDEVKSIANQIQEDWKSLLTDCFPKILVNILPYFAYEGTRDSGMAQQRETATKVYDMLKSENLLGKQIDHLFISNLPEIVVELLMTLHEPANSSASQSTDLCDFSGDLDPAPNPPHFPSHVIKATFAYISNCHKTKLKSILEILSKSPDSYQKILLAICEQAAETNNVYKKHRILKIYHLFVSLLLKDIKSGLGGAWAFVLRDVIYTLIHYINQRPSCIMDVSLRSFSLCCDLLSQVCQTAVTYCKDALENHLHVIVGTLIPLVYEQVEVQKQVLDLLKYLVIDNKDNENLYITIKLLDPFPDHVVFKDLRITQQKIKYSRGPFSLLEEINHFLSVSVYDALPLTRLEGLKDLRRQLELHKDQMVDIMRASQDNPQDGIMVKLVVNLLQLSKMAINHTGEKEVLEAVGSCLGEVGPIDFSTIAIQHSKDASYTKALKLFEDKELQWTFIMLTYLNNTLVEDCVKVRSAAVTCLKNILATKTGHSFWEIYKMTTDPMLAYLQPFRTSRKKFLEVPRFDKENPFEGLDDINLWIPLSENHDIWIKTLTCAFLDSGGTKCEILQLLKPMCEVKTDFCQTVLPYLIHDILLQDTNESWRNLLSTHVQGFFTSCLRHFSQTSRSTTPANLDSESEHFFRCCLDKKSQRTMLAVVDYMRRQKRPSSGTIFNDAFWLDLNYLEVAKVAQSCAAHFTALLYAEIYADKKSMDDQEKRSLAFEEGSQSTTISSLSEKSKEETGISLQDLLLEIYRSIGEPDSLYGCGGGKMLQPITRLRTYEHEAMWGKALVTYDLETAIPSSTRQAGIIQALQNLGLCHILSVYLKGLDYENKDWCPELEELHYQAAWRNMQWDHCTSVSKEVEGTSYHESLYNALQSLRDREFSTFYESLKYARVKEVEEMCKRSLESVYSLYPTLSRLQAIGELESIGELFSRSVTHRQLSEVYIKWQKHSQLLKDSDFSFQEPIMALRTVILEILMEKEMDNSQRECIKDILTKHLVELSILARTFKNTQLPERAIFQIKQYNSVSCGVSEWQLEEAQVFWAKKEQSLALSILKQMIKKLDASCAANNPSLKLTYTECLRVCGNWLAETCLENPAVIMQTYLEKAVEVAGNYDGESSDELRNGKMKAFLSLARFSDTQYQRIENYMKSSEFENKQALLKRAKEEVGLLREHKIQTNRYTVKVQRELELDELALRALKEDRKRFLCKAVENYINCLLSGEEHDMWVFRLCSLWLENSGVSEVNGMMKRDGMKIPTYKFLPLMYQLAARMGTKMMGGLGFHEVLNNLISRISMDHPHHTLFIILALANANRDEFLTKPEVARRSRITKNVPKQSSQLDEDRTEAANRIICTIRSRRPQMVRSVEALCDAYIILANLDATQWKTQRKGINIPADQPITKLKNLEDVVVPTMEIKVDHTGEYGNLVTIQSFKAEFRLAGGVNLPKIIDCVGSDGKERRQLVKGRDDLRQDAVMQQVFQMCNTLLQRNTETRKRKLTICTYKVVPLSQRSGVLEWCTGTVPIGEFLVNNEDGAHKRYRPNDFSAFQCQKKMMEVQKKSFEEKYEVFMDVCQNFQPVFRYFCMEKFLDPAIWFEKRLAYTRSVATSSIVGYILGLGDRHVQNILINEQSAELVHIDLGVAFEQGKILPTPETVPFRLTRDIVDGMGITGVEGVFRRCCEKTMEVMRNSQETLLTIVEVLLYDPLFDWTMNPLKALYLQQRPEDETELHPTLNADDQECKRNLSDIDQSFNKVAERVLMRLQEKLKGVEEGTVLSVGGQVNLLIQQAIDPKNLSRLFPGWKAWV

Test [1] has as its target ATM phosphorylated at S1981 (ataxia telangiectasia mutated) (human (endogenous in HCT116)) (UniProt Q13315). The experiment in a line: condition: only cells treated with hydroxyurea without MS-275; co-IP; as a1, but HCT116 cells treated with hydroxyurea individually, without MS-275 (Fig. 6d, right panel); IP with anti-pS1981-ATM antibody, western blot for PR130. On the technique in general: A western blot detects proteins with antibodies after separation by electrophoresis.

For test [2] the target is unchanged. The experiment in a line: co-IP; HCT116 cells treated with 1 mM hydroxyurea and 2 µM MS-275 for 20 h, then 25 nM okadaic acid for further 4 h (also okadaic acid alone); cells fixed with 1% paraformaldehyde; IP with anti-pS1981-ATM antibody, controls rabbit pre-immune serum or no antibody; washes with 900 mM NaCl, 0.5% NP-40; western blot for pATM and PR130.

No constants are given. Whether binding was seen depends on the method and setting. Binding seen in cells or lysates may run through a third protein. Some entries that bind do so weakly or less than the wild type.

B1: PR130, PP2A regulatory subunit encoded by PPP2R3A (protein, UniProt Q06190-1 1-1150)
chain: MAATYRLVVSTVNHYSSVVIDRRFEQAIHYCTGTCHTFTHGIDCIVVHHSVCADLLHIPVSQFKDADLNSMFLPHENGLSSAEGDYPQQAFTGIPRVKRGSTFQNTYNLKDIAGEAISFASGKIKEFSFEKLKNSNHAAYRKGRKVKSDSFNRRSVDLDLLCGHYNNDGNAPSFGLLRSSSVEEKPLSHRNSLDTNLTSMFLQNFSEEDLVTQILEKHKIDNFSSGTDIKMCLDILLKCSEDLKKCTDIIKQCIKKKSGSSISEGSGNDTISSSETVYMNVMTRLASYLKKLPFEFMQSGNNEALDLTELISNMPSLQLTPFSPVFGTEQPPKYEDVVQLSASDSGRFQTIELQNDKPNSRKMDTVQSIPNNSTNSLYNLEVNDPRTLKAVQVQSQSLTMNPLENVSSDDLMETLYIEEESDGKKALDKGQKTENGPSHELLKVNEHRAEFPEHATHLKKCPTPMQNEIGKIFEKSFVNLPKEDCKSKVSKFEEGDQRDFTNSSSQEEIDKLLMDLESFSQKMETSLREPLAKGKNSNFLNSHSQLTGQTLVDLEPKSKVSSPIEKVSPSCLTRIIETNGHKIEEEDRALLLRILESIEDFAQELVECKSSRGSLSQEKEMMQILQETLTTSSQANLSVCRSPVGDKAKDTTSAVLIQQTPEVIKIQNKPEKKPGTPLPPPATSPSSPRPLSPVPHVNNVVNAPLSINIPRFYFPEGLPDTCSNHEQTLSRIETAFMDIEEQKADIYEMGKIAKVCGCPLYWKAPMFRAAGGEKTGFVTAQSFIAMWRKLLNNHHDDASKFICLLAKPNCSSLEQEDFIPLLQDVVDTHPGLTFLKDAPEFHSRYITTVIQRIFYTVNRSWSGKITSTEIRKSNFLQTLALLEEEEDINQITDYFSYEHFYVIYCKFWELDTDHDLYISQADLSRYNDQASSSRIIERIFSGAVTRGKTIQKEGRMSYADFVWFLISEEDKRNPTSIEYWFRCMDVDGDGVLSMYELEYFYEEQCERMEAMGIEPLPFHDLLCQMLDLVKPAVDGKITLRDLKRCRMAHIFYDTFFNLEKYLDHEQRDPFAVQKDVENDGPEPSDWDRFAAEEYETLVAEESAQAQFQEGFEDYETDEPASPSEFGNKSNKILSASLPEKCGKLQSVDEE
Consider B1, for which the binding entry in test [1] is listed as “no binding”; in test [2] it was “binds”.
